In PubChem BioAssay AID493014 (National Center for Advancing Translational Sciences (NCATS), 2011) one finds AC50 data, which are given here for 63 compounds.

Each structure is given as a SMILES string. The list shows a part of the results. Further columns of the screen follow, without active or inactive calls. Most of these compounds were active or inconclusive in the main read-out, so they are no random draw. Words in brackets tell the shape of the fitted curve; partial curves, single points and poor fits give uncertain potencies.

A short description of the experiment: qHTS Assay to Find Inhibitors of Chronic Active B-Cell Receptor Signaling. The following applies: ABC-DLBCL IkBa-CBG/CBR reporter, luminescence ratio (green luciferase fused to IkBa over red control in TMD8 lymphoma cells), 4 h. The gist of the method: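 Compounds up to 46 uM were incubated four hours with TMD8 cells whose green CBG68 luciferase is fused to IkappaBalpha; red CBR luminescence normalised the signal, and concentration-effect curves were fitted to fusion, red and ratio data.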

Setting [1] is: measured here: CBR red luminescence, cell number.
Setting [2] is: measured here: IkBa-CBG green luminescence.

In the case of `CSc1nc(SCC(=O)NCc2ccco2)c2c3c(sc2n1)COC(C)(C)C3`, the AC50 is 31.6 µM [rising, partial curve, poor fit] under setting [1] and 35.5 µM [falling, partial curve, poor fit] under setting [2].

Take `COc1cccc(C(=O)NC2CCN(CC(=O)Nc3c(C)cc(C)cc3C)CC2)c1`: the half-maximal activity concentration (AC50) under setting [1] was 35.5 µM [rising, single point].

With `O=C1c2ccccc2CN1c1ccccc1`, under setting [2], the half-maximal activity concentration (AC50) was 12.6 µM [rising, partial curve, poor fit].

Regarding `Cc1cc2n(n1)C(c1ccccc1)Nc1ccccc1-2` (stereo unspecified), the AC50 under setting [1] is 16.4 µM [rising, partial curve].

As to `C#CCOCCOCCOCCNc1nc(N2CCN(C(=O)CCCCCCCCCCNC(=O)[C@H]([C@@H](C)CC)n3cc(CCCCCN)nn3)CC2)nc(N2CCN(C(=O)CCCCCCCCCCNC(=O)[C@@H]([C@H](C)CC)n3cc(CCCCCN)nn3)CC2)n1`, the half-maximal activity concentration (AC50) under setting [1] was 6.51 µM [rising, single point].

On to `CCOC(=O)N1CCN(CC(O)COC2CC(C)CC(C)(C)C2)CC1` (stereo unspecified), for which the concentration at half-maximal activity (AC50) under setting [1] was 14.1 µM [falling, single point].

With `COc1ccc2c(c1OC)c(=O)n1c3ccc(OC(C)C(=O)NCCN4CCOCC4)cc3c3ccnc2c31` (stereo unspecified), the concentration at half-maximal activity (AC50) under setting [1] is 3.98 µM [falling, full curve, poor fit].

For `O=C(COC(=O)c1nc(Cl)c(Cl)c(Cl)c1Cl)c1ccc[nH]1`, under setting [2], the half-maximal activity concentration (AC50) is 29.1 µM [falling, single point].

In the case of `Cc1ccc(-c2nc(-c3ccncc3)no2)c(Cl)c1`, the concentration at half-maximal activity (AC50) under setting [1] is 2.82 µM [rising, single point].

As for `CCCCN(CC)CCCNC(=O)c1cc2c(=O)n(C)c3ccccc3c2n1C`, the AC50 under setting [1] was 11.6 µM [falling, single point].

For the compound `Cc1ccc(-n2ncc3c(=O)n(CC(=O)N4CCN(C(=O)c5ccco5)CC4)cnc32)cc1`, under setting [1], the concentration at half-maximal activity (AC50) was 29.1 µM [rising, single point].

Regarding `CCCCCCCCCCOC(=O)Cn1c(COc2ccccc2OC)[n+](C)c2ccccc21`, under setting [1], the AC50 is 35.5 µM [falling, single point].

Regarding `O=c1cc(N2CCc3ccccc3C2)[nH]c(=O)n1-c1ccccc1Cl`, under setting [1], the AC50 was 18.4 µM [falling, single point].

As to `CCCCCCC[C@@H](C/C=C/CCC(=O)N(C)C/C(=C/Cl)C/C(=C\C(=O)N1CC(OC)=CC1=O)OC)OC`, under setting [1], the half-maximal activity concentration (AC50) is 0.651 µM [rising, full curve, poor fit].

As to `Cc1ccc(NC(=O)c2sccc2-n2cccc2)c(Cl)c1`, under setting [1], the concentration at half-maximal activity (AC50) is 14.1 µM [rising, partial curve].

Turning to `O=C1OC(Nc2nc3ccccc3s2)c2ccccc21` (stereo unspecified), under setting [1], the AC50 is 0.282 µM [rising, full curve, poor fit].

Consider `N#Cc1c(NC(=O)CSc2ncn[nH]2)sc2c1CCCCC2`, for which the AC50 under setting [1] is 16.4 µM [falling, partial curve, poor fit].

With `Cc1ccc(-c2cc(-c3ccccc3)[nH]c(=S)c2C#N)cc1`, the AC50 under setting [1] was 14.6 µM [rising, partial curve, poor fit].

Take `c1ccc(CCCNc2ncnc3nc[nH]c23)cc1`: the concentration at half-maximal activity (AC50) under setting [1] is 23.1 µM [falling, single point].

As to `CC1CC(CCC(=O)NC(=S)Nc2ccc(Cl)cn2)C(=O)O1` (stereo unspecified), the AC50 under setting [1] was 35.5 µM [rising, single point].

Regarding `O=C(COc1ccc2c(c1)OCO2)Nc1ccccc1F`, under setting [1], the AC50 was 7.94 µM [falling, partial curve].

For the compound `COc1ccc(-c2c3c(=O)n(C)c(=O)n(C)c3cn2-c2ccccc2O)cc1`, the AC50 under setting [1] is 35.5 µM [falling, single point].

Turning to `O=C(NCc1ccco1)c1ccccc1O`, under setting [1], the AC50 is 17.8 µM [rising, partial curve, poor fit].

For `COc1ccccc1/C=C(/C(=O)OCC(=O)Nc1ccc(N(C)C)cc1)c1ccccc1`, the AC50 under setting [1] is 29.1 µM [falling, single point].

With `O=C(Nc1nc2c(cc3c4c(cccc42)CC3)s1)c1ccccc1Cl`, the AC50 under setting [1] was 0.116 µM [falling, full curve].

Regarding `Oc1ccc(Nc2nc(-c3ccc4ccccc4c3)cs2)cc1`, the concentration at half-maximal activity (AC50) is 0.291 µM [falling, full curve, poor fit] under setting [1] and 18.4 µM [rising, partial curve, poor fit] under setting [2].

`COc1ccc(C(=O)N2CCN=C2SCc2cccnc2)c(OC)c1`: the concentration at half-maximal activity (AC50) under setting [1] was 1.64 µM [rising, partial curve, poor fit].

Consider `N#CCC(=O)N/N=C\c1ccc(OC/C=C/c2ccccc2)cc1`, for which the AC50 under setting [1] was 1.26 µM [falling, full curve, poor fit].

In the case of `Cn1cnnc1SCc1ccc(F)c2ccccc12`, under setting [1], the AC50 was 5.8 µM [rising, partial curve].

Consider `CC(=O)N=c1sc2cc(C)ccc2n1C`, for which the AC50 under setting [1] is 0.184 µM [falling, full curve, poor fit].

Consider `CS(=O)(=O)N(CC(=O)N1CCN(c2ccccc2)CC1)Cc1ccc(Cl)cc1`, for which the AC50 under setting [1] was 3.26 µM [falling, full curve, poor fit].

As to `Cc1nc2ccccc2n1CCc1nc2c3ccccc3nc(SCC(=O)NCc3ccco3)n2n1`, the AC50 under setting [1] is 6.31 µM [falling, single point].

As to `O=C(CN1C(=O)NC2(CCCC2)C1=O)OCc1cc(=O)n2cc(Br)ccc2n1`, the concentration at half-maximal activity (AC50) under setting [1] is 0.112 µM [rising, full curve, poor fit].

As to `CC(C)(C)Cc1nnc(NC(=O)c2ccc([N+](=O)[O-])cc2)s1`, under setting [1], the AC50 was 0.184 µM [rising, full curve, poor fit].

Take `COc1ccc(NC(=O)O/N=C/c2ccccc2Cl)cc1`: under setting [1], the AC50 was 11.2 µM [rising, single point].

On to `COc1ccc(C(=O)NC(=S)Nc2ccc(Cl)c(C(=O)O)c2)cc1`, for which the AC50 under setting [1] was 17.8 µM [falling, partial curve].

Turning to `COC(=O)CSc1nnc(-c2ccc(S(=O)(=O)N3CCCCC3)cc2)o1`, the half-maximal activity concentration (AC50) under setting [1] is 32.6 µM [rising, single point].

Turning to `COc1ccc(/C=C\c2onc(C)c2S(=O)(=O)N2CCC(C(=O)NCc3ccco3)CC2)cc1`, the AC50 under setting [1] is 4.47 µM [rising, partial curve, poor fit].

As for `O=C(CCCN1C(=O)c2cccc3cccc(c23)C1=O)Nc1ccon1`, the half-maximal activity concentration (AC50) under setting [1] is 14.1 µM [rising, partial curve, poor fit].

With `Cc1cccc2c(C(=O)N3CCN(c4ccccc4)CC3)cc(-c3ccncc3)nc12`, the concentration at half-maximal activity (AC50) by setting is: under setting [1], 15.8 µM [rising, single point]; under setting [2], 22.4 µM [falling, single point].

Regarding `Cc1occc1C(=O)NCCCCc1ccccc1`, the concentration at half-maximal activity (AC50) under setting [1] is 5.8 µM [falling, partial curve].

In the case of `COc1ccc(Cn2c(C(F)(F)F)ccc(C(N)=O)c2=O)cc1`, the AC50 under setting [1] is 0.501 µM [rising, full curve, poor fit].

With `CC(C)CC1NC(=O)N(CC(=O)N2CCN(S(=O)(=O)c3ccc(Cl)cc3)CC2)C1=O` (stereo unspecified), the AC50 under setting [1] is 2.06 µM [rising, single point].

On to `COc1cc(/C=N/NC(=O)c2ccc3ccccc3c2)ccc1Oc1ccc([N+](=O)[O-])cn1`, for which, under setting [1], the half-maximal activity concentration (AC50) was 7.31 µM [falling, partial curve].

For `CCC1=NN2C(=N)/C(=C\c3ccc(OCCOc4ccccc4)c(OC)c3)C(=O)N=C2S1`, the concentration at half-maximal activity (AC50) under setting [1] is 0.631 µM [rising, full curve, poor fit].

As for `COc1cccc2[nH]c(C(=O)NCCCN3CCCC3=O)cc12`, the AC50 under setting [1] was 3.16 µM [falling, partial curve, poor fit].

In the case of `COc1ccc(-c2csc(NC(=O)CSc3nnnn3C)n2)cc1OC`, the concentration at half-maximal activity (AC50) under setting [1] is 6.51 µM [rising, single point].

In the case of `CCOc1ccc(C(=O)NC(=S)Nc2cccnc2)cc1[N+](=O)[O-]`, the AC50 under setting [1] was 3.55 µM [rising, single point].

With `Cn1c(Cl)cnc1C1CC(=O)c2cc(Cl)ccc2O1` (stereo unspecified), the half-maximal activity concentration (AC50) under setting [1] was 25.9 µM [falling, single point].

For `Cc1cccc(NC(=O)C2COc3ccccc3O2)c1` (stereo unspecified), under setting [1], the AC50 is 0.398 µM [rising, partial curve, poor fit].

Turning to `CC(=O)N1CCN(c2ccc(NC(=O)c3ccccc3Cl)cc2)CC1`, the concentration at half-maximal activity (AC50) under setting [1] is 25.1 µM [falling, single point].

Take `Cc1ccc(F)cc1NC(=O)CN1C(=O)NC(C)(c2ccc3c(c2)OCCO3)C1=O` (stereo unspecified): the half-maximal activity concentration (AC50) under setting [1] was 29.1 µM [rising, single point].

For the compound `COc1ccc(CCNc2nc(-c3ccccn3)cs2)cc1OC`, the AC50 under setting [1] was 11.2 µM [falling, partial curve].

On to `O=C(N/N=C\c1ccc(S(=O)(=O)O)o1)c1ccc2c(c1)OCO2`, for which, under setting [1], the AC50 was 17.8 µM [falling, single point].

Regarding `C=CCc1cccc2cc(C(=O)Nc3ccc(CC(=O)O)cc3)c(=O)oc12`, under setting [1], the AC50 is 1.12 µM [falling, full curve].

`COc1ccc(CCC(=O)Nc2cc3c4c(c2)CCC(=O)N4CCC3)cc1`: the AC50 under setting [1] was 6.51 µM [rising, single point].

For the compound `CCOC(=O)c1c(NC(=O)CSc2nnc(-c3cccnc3)n2Cc2ccco2)sc(C)c1C`, the AC50 under setting [1] is 11.2 µM [falling, partial curve, poor fit].

Turning to `CC(C)CSc1nnc2c3ccccc3n(C)c2n1`, under setting [1], the half-maximal activity concentration (AC50) was 1 µM [rising, full curve, poor fit].

As for `N#CC1=CN(Cc2ccccc2)C=C(/C=N/Nc2ccccc2)C1`, under setting [1], the AC50 was 14.1 µM [falling, single point].

Take `COc1ccccc1-n1c(SCC(=O)Nc2ccc(F)cc2)nc2c(c1=O)SCC2`: the concentration at half-maximal activity (AC50) under setting [1] was 20.6 µM [falling, single point].

Regarding `Nc1cc(-c2ccccc2)nn1Cc1ccc(Cl)cc1`, the half-maximal activity concentration (AC50) under setting [1] was 35.5 µM [falling, single point].

In the case of `Cc1ccc(OCCCn2c(CO)nc3ccccc32)cc1`, the concentration at half-maximal activity (AC50) under setting [1] is 2.59 µM [rising, partial curve, poor fit].

Take `COc1ccc(CCN=C(N)Nc2nc(C)cc(C)n2)cc1`: under setting [1], the half-maximal activity concentration (AC50) was 14.1 µM [falling, partial curve, poor fit].

As a reminder, the AC50 is the midpoint of the concentration-response curve, whichever way the signal moves.
